Reference: article PMC8659060, “Neuroprotective Potential of Synthetic Mono-Carbonyl Curcumin Analogs Assessed by Molecular Docking Studies” (Molecules, 2021)

Tested on: T1, BChE in the hippocampus region of mouse brain
T1 construct: from tissue; host or cells: mouse brain hippocampus (supernatant of homogenate)
Assay type: in vivo
Conditions: pretreatment with donepezil, then scopolamine, n = 6
Experimental: The groups were kept for 7 days at various treatments doses.
The mice were sacrificed immediately after the behavioral study by cervical dislocation to provide quick and painless death to each animal before decapitation. Brain of each animal was excised in phosphate buffer saline (chilled) and incorporated into biochemical biomarker analysis.
Cholinesterase (AChE and BChE) levels were determined in the excised brain hippocampus using Ellman’s method with slight modification. Supernatant (0.4 mL), 0.1 M/L, pH 8 phosphate buffer (2.6 mL), and 100 µL of DTNB (5,5′-dithiobis-2-nitrobenzoic acid) and were added into cuvette and mixed. Spectrophotometer at 412 nm was run and absorbance was measured several times, then […] acetyl thiocholine iodide/butyrylthiocholine chloride was mixed into the reaction as substrate at an interval of 2 min, and variation in absorbance was noted and the changes in absorbance per min were recorded. The following formula was used for calculation of cholinesterase level: R = 5.74 × 10^−4 × A/CO where ‘R’ is the moles (rate) of substrate hydrolyzed/min/mg of protein, (A) is the change in absorbance/min, and ‘CO’ is concentration (20 mg/mL) of protein.

## COc1cc2c(cc1OC)C(=O)C(CC1CCN(Cc3ccccc3)CC1)C2 (stereo not shown) [Donepezil, reference compound]
  Hippocampus BChE level: 20.69 ± 1.73 µmol/min/mg of protein
